# Values from PubChem BioAssay AID504786 (Drosophila RNAi Screening Center, 2011).
# Test: 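Positive regulators of HIF-driven reporter output in Drosophila cells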 (primary screen)
# System: Drosophila S2 cells with a stable HIF luciferase reporter
# Reagents: long dsRNA against Drosophila genes, about 0.2 µg dsRNA per well of a 384-well plate
# Time to read-out: three days of knock-down, then 20 h of DFO before reading
# Treatment: desferrioxamine (DFO) at 100 µM, an iron chelator that mimics hypoxia, for 20 h
# Measured: 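Firefly luciferase driven by the mouse ldh-a hypoxia-response element, measured after 20 h of 100 µM DFO; z-scores per plate, higher means more signal lost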
# Scale: z-score: higher = stronger loss of HIF reporter signal
# The deposit covers about 21,000 reagents; below is a random part of those with a known target gene and a result. 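Primary screen; positive scores mean lost reporter signal, so the sign may be inverted from the usual convention.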 Names joined by + are all predicted targets of the reagent. Further read-outs or replicates are left out here.
gene knocked down,dsRNA,"z-score, replicate 1","z-score, replicate 2","z-score, replicate 3"
psidin,DRSC15660,0.1,0,
CG7791,DRSC04891,-0.3,-0.2,
Rrp4,DRSC04434,-0.1,1.6,
Pitslre,DRSC11874,-0.2,1.4,
Cpr31A,DRSC02779,-0.1,-0.2,
Scamp,DRSC20286,-0.2,0.1,
CG6287,DRSC02947,-0.3,-0.5,
Oatp58Db,DRSC04364,-0.2,-0.3,
Ir7a,DRSC17866,-0.1,-0.1,
ddbt,DRSC07869,-0.4,-0.4,
Eato,DRSC01891,-0.1,-0.8,
Eato,DRSC03061,-0.1,-0.7,
CG31204,DRSC15106,-0.3,0.5,
Cpn,DRSC16613,-0.4,-0.5,
eIF2Bepsilon,DRSC18769,-0.2,-0.9,
SF1,DRSC16844,0.5,1.1,
Hsp26,DRSC11189,-0.3,-0.3,
CG5614,DRSC15845,-0.2,-0.5,-0.7
CG13739,DRSC06410,0.3,0.5,
RhoBTB,DRSC11877,-0.3,-0.3,
Osi12,DRSC12177,-0.4,0.4,
Polr3H,DRSC10817,-0.1,-0.4,
GMF,DRSC01928,-0.3,-0.5,
CG14182,DRSC10181,-0.3,0.1,
Kmn1,DRSC19666,0.2,1.1,
CG32686,DRSC17645,0.3,-0.1,
CG9445,DRSC05006,-0.3,-0.1,
Ref1,DRSC12497,-0.4,-0.5,1.2
CG11892,DRSC14428,-0.2,-0.4,
CG4000,DRSC15535,-0.5,0.3,-0.2
CG6443,DRSC02958,-0.4,0.5,
Arl6IP1,DRSC14231,-0.4,0.3,
RpL36,DRSC18708,5.8,5.2,
Tsp42Ei,DRSC06189,-0.4,-0.3,
CG3280 (retired record),DRSC10356,0,0.1,
CAH15,DRSC04534,-0.2,-0.4,
RpS10a,DRSC14161,-0.3,-0.6,
dco,DRSC16929,-0.4,-0.2,
foi,DRSC10719,0.4,0.6,
psd,DRSC03131,-0.3,-0.3,
red,DRSC14477,1.3,2,
CG7768,DRSC10914,-0.3,-0.5,
sws,DRSC18843,0.1,-1.3,0
Amt,DRSC16055,-0.3,-0.3,
Hmr,DRSC17740,-0.4,-0.8,
Tsp42Ek,DRSC06187,-0.3,-0.4,
pAbp,DRSC07659,-0.3,-0.5,
CG10793,DRSC17760,-0.2,-0.4,
CG15615,DRSC06568,-0.2,-0.3,
Klp68D,DRSC11206,-0.2,-0.5,
upd3,DRSC19636,0.2,-0.3,
upd3,DRSC19968,-0.2,-0.1,
Lcp3,DRSC07457,-0.3,-0.4,
Ir94h,DRSC15232,-0.4,-0.4,
Nipped-B,DRSC07815,0.7,0.5,
sicily,DRSC19704,-0.2,0,
CG14907 + Mettl4,DRSC15026,-0.5,-1,
CG14907 + Mettl4,DRSC15027,-0.4,-0.5,
CG7755,DRSC07040,-0.1,-0.1,
mask,DRSC15370,-0.2,0.3,
mask,DRSC16005,-0.1,0,
mask,DRSC16018,0.1,0.6,
CG10035,DRSC14177,-0.2,0.3,
sbb,DRSC05723,0.2,-0.1,
sbb,DRSC07676,-0.3,-0.6,
Zw10,DRSC18793,-0.4,-0.5,
CG12769,DRSC06167,-0.4,-0.4,
sel,DRSC06232,-0.3,-0.5,-0.4
slim,DRSC06921,-0.3,-0.3,
CG8677,DRSC03107,-0.3,-0.4,
orion,DRSC18213,-0.2,-0.4,
orion,DRSC18214,-0.2,-0.2,
CG13510,DRSC04152,-0.4,-0.6,
AGO2,DRSC09999,-0.1,0.5,
AGO2,DRSC10847,-0.4,-0.3,
CG7191,DRSC03022,-0.1,0,
CG30429,DRSC04040,-0.2,-0.1,
Ppn,DRSC15328,-0.6,-0.5,
CG14443,DRSC17936,-0.3,-0.3,
CG8854,DRSC07288,-0.3,-0.4,
vvl,DRSC11409,-0.4,-0.1,
Skeletor (retired record),DRSC14905,-0.1,0.1,
Skeletor (retired record),DRSC14906,-0.4,-0.6,

Taken from above:
CG32686 [DRSC17645], z-score, replicate 1: 0.3
Result for CG31204 [DRSC15106] under “z-score, replicate 1”: -0.3
RpL36 [DRSC18708], z-score, replicate 2 = 5.2
CG13739 [DRSC06410], z-score, replicate 1 = 0.3
For “z-score, replicate 2”, vvl [DRSC11409] has -0.1
For “z-score, replicate 1”, ddbt [DRSC07869] has -0.4
